Results from patent US7998681B2, “Diagnosis and therapy of antibody-mediated inflammatory auto-immune disorders” (Los Angeles Biomedical Research Institute at Harbor-UCLA …, priority 2000, dated 2011).
For at least one compound, name, drawing or mass did not settle the structure.

Columns and labels:
Type in all cases: cell-based, human
IL-16 = IL-16 ELISA of medium from treated fibroblasts, GD donors; details: TAO/GD fibroblasts; rapamycin 20 nM, dexamethasone 10 nM, αIR3 5 μg/ml, asialo HCG high concentrations
Description: (§1) In addition to its therapeutic aspects, the present invention also relates to a diagnostic method for detecting the presence of antibody-activated fibroblasts in the patient. Applicants believe that several auto immune diseases or disorders are associated with antibody-activated fibroblasts. […] Altered levels of these chemoattractants can be detected in various biological samples in mammals, preferably humans. Levels of IL-16 and/or RANTES may be monitored in a patient, using standard techniques, as an indication of the deleterious aspects of the disease condition. Biological samples, including but not limited to serum, vitreous humor, aqueous humor, synovial fluid, and tissue, will be drawn from the patient using standard techniques. Particularly preferred are serum samples. The measurement of the IL-16 and RANTES levels may be monitored using any method possible to detect the levels of these proteins in biological samples. A preferred method of analysis is by ELISA as described in Sciaky, D. et al., J. Immunol. 164(7):3806-14, 2000. An ELISA specific for IL-16 can be used to assess the levels released by fibroblasts as described previously in Lim, K. G. et al., J. Immunol. 156(7): 2566-70, 1996. […]
(§2) The levels of IL-16 and RANTES were then assessed with specific ELISAs. […]

RANTES = RANTES ELISA of medium from treated fibroblasts, GD donors; details: TAO/GD fibroblasts; rapamycin 20 nM, dexamethasone 10 nM, αIR3 5 μg/ml, asialo HCG high concentrations
Description: as §1, §2

TAO fibroblasts = assay: PGE2 synthesis in TAO fibroblasts; details: FIG. 7A
Method: FIGS. 7A and 7B show the up-regulation of PGE2 synthesis and blockage with SC58125 (a PGHS-2 inhibitor) and dexamethasone (7A) and PGHS-2 expression (7B) in TAO fibroblasts.
Referring to FIGS. 7A and 7B, CD40 ligation in orbital fibroblasts results in the induction of PGHS-2 and leads to the over-production of PGE2. […] CD40 ligation in these cultures results in the intermediate activation of IL-1α gene expression. This induction occurs after 6 h of treatment and is mediated at the pre-translational level. IL-1β is undetectable in orbital fibroblasts and is not induced by CD154. Interrupting the expression, receptor binding or activity of IL-1α attenuates the induction of PGHS-2 provoked by CD40 ligation. It is notable that CD40 is over-expressed by thyroid epithelium in Graves' disease and provokes constitutive PGHS-2 expression. Moreover, functional CD40 is expressed by human thyroid fibroblasts.

| Compound | effect on induction of IL-16 by Graves' IgG (IL-16) | effect on induction of RANTES by Graves' IgG (RANTES) | effect on up-regulation of PGE2 synthesis (TAO fibroblasts) |
| --- | --- | --- | --- |
| CO[C@H]1C[C@@H]2CC[C@@H](C)[C@@](O)(O2)C(=O)C(=O)N2CCCC[C@H]2C(=O)O[C@H]([C@H](C)C[C@@H]2CC[C@@H](O)[C@H](OC)C2)CC(=O)[C@H](C)/C=C(\C)[C@@H](O)[C@@H](OC)C(=O)[C@H](C)C[C@H](C)/C=C/C=C/C=C/1C [rapamycin] | blocked completely | is not | – |
| C[C@@H]1C[C@H]2[C@@H]3CCC4=CC(=O)C=C[C@]4(C)[C@@]3(F)[C@@H](O)C[C@]2(C)[C@@]1(O)C(=O)CO [dexamethasone] | block | block | blockage |
